The values below are quoted from earlier work in article PMC3743553 (Journal of child neurology, 2012).

The data set deals with class I histone deacetylase enzymes. The following applies: 106: histone deacetylase enzymes 1 and 3; cited from earlier work.

`O=C(CCCCCCC(=O)Nc1ccccc1)NO` [suberoylanilide hydroxamic acid]: the mechanism of inhibition result is “rapid-on/rapid-off, classical competitive inhibitors”.
